Laboratory results as given in PubChem BioAssay AID504834 (National Center for Advancing Translational Sciences (NCATS), 2011).
Hit rate of the full screen: of about 320,000 compounds, about 22,000 (6.9%) were called active. Inconclusive results, whose numbers are uncertain, are shown with a selection of clear calls. Calls come from the whole dose curve; as a rule, active = well fitted inhibition curve with a large enough effect; inconclusive = small, poorly fitted or top-dose-only effect, or another doubt; inactive = no such curve, though single readings can be large or run the other way. Potencies of inconclusive entries are doubtful fits and often do not repeat.

Experiment: Primary qHTS for delayed death inhibitors of the malarial parasite plastid, 96 hour incubation
Conditions: P. falciparum luciferase reporter growth; series mostly up to 28.7 µM
Procedure, shortened: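 Infected RBCs, 2% Hct / 0.05% parasitemia final; luciferase-reporter P. falciparum; cpd 96 h, 37 C, 5% CO2; luciferase detection reagent; luminescence.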
% is set by controls: 0 for no effect and ±100 for the full control effect; potency is the fitted concentration of half-maximal effect.

Row | SMILES | Potency | activity change, negative = inhibition
1 | CC(C)CC1NC(=O)N(CC(=O)Nc2ccc3c(c2)CCC3)C1=O (centres undefined) | inactive | –
2 | CCCC(c1nnnn1Cc1ccco1)N1CCN(c2ccccc2)CC1 (centres undefined) | inactive | –
3 | COc1ccc(CCN2CC(C(=O)N(C)CCn3nc(C)cc3C)CCC2=O)cc1 (centres undefined) | inconclusive: 18.5 µM [inhibitor, single point] | –
4 | OCc1nn2c(c1Br)NC(c1ccccc1)CC2C(F)(F)F (centres undefined) | inactive | –
5 | CC1=C(C(=O)OCC2CCCO2)C(c2ccccc2)NC(=O)N1 (centres undefined) | inactive | –
6 | O=C(CN1CCCC1=O)NC1CCCc2c1cnn2-c1cc(F)cc(F)c1 (centres undefined) | inactive | –
7 | COc1cc(/C=C(\C#N)c2nc3ccccc3[nH]2)cc(OC)c1O | inactive | –
8 | Cc1ccc(SCC(=O)NC2CCS(=O)(=O)C2)cc1 (centres undefined) | inactive | –
9 | O=S(=O)(Cc1ccccc1)NCCc1cccc(Cl)c1 | active: 3.29 µM | –
10 | O=C(CSc1ccccc1)NCC1(N2CCCCC2)CCCCC1 | inconclusive: 18.5 µM [inhibitor, single point] | –
11 | CC(C)CN1CCC(=O)N(CCOc2ccccc2)CC1 | inactive | –
12 | COc1nc(N/N=C/c2ccc(C)cc2)nc(N2CCCCC2)n1 | inactive | –
13 | Cc1ccc(-c2noc(-c3cc(C(C)(C)C)nn3Cc3ccccc3)n2)cc1 | inactive | –
14 | Oc1ccc(N2CCN(C(c3cccnc3)c3nnnn3Cc3ccccc3)CC2)cc1 (centres undefined) | inconclusive: 0.415 µM [inhibitor, full curve, poor fit] | –
15 | CC(C)C[C@@H](C(=O)N[C@@H](C(=O)O)c1ccccc1)N1C(=O)N2CCc3c([nH]c4ccccc34)[C@@]2(C)C1=O | inconclusive: 13.1 µM [inhibitor, partial curve] | –
16 | COc1ccc(-c2nc3ccccc3c(=O)n2CCOc2cccc(C)c2C)cc1 | inactive | –
17 | C/C(N)=C(/C#N)C(=O)COC(=O)CCCNC(=O)c1ccc(Cl)cc1 | inconclusive: 18.5 µM [inhibitor, single point] | –
18 | C=CCn1c(SCC(=O)NCCCC(=O)OCC)nc2scc(-c3ccco3)c2c1=O | inactive | –
19 | COC(=O)C1C(=O)NC(SC)=C(C#N)C1c1ccccc1F (centres undefined) | inactive | –
20 | COc1cc(-c2cc(C(=O)NCCc3ccc(S(N)(=O)=O)cc3)c3ccccc3n2)cc(OC)c1OC | inconclusive: 11.7 µM [inhibitor, single point] | –
21 | CSc1nc(-c2ccco2)nn1C(=O)c1cccs1 | inconclusive: 18.5 µM [inhibitor, single point] | –
22 | CC(=O)N1CCN(CC(=O)c2ccc(Br)cc2)CC1 | inactive | –
23 | CCOc1ccccc1NC(=O)c1cc(S(=O)(=O)N2CCN(CC)CC2)ccc1Cl | inconclusive: 18.5 µM [inhibitor, single point] | –
24 | CC1=CC(C)(C)N2C(=O)C3(C(C#N)=C(N)Oc4cc(C)oc(=O)c43)c3cccc1c32 (centres undefined) | active: 14.7 µM | –
25 | O=C1OC(NC(=O)c2ccccc2)C(n2cc(CO)nn2)=C1Cl (centres undefined) | inconclusive: 18.5 µM [inhibitor, single point] | –

Row | SMILES | Potency | activity change, negative = inhibition
26 | CCOC(=O)C1=C(C)NC2=C(C(=O)CC(C)(C)C2)C1c1ccc(N(C)C)cc1 (centres undefined) | inconclusive: 13.1 µM [inhibitor, partial curve, poor fit] | –
27 | CCOC(=O)C1(CCOc2ccccc2)CCN(C(=O)c2ccc(-n3cccn3)cc2)CC1 | active: 10.4 µM | –
28 | COc1ccc(N(C(=O)c2ccco2)C(C(=O)NC2CCCC2)c2cccs2)cc1 (centres undefined) | inactive | –
29 | COc1cccc(/C=N/NC(=O)Cn2nc(C)c([N+](=O)[O-])c2C)c1O | inconclusive: 18.5 µM [inhibitor, single point] | –
30 | COC(=O)Cn1cc(/C=N/NC(=O)COc2cccc3cccnc23)c2ccccc21 | inactive | –
31 | COc1cc2c(cc1NC(=O)CSc1nc3ccccc3[nH]1)oc1ccccc12 | inconclusive: 18.5 µM [inhibitor, single point] | –
32 | O=C(NN1C(=O)C2C3C=CC(C4CC34)C2C1=O)c1ccc(Cl)cc1 (centres undefined) | inconclusive: 18.5 µM [inhibitor, single point] | –
33 | COCCCNC(=O)c1cc(C(=O)c2c(-c3c(Cl)cccc3Cl)noc2C)c[nH]1 | inconclusive: 4.15 µM [inhibitor, single point] | –
34 | COC(=O)c1ccccc1NC(=O)CN(CCc1ccccc1)S(C)(=O)=O | inactive | –
35 | COc1ccc(S(=O)(=O)n2nc(OC(=O)c3ccncc3)cc2N)cc1 | inactive | –
36 | CCOc1cc(NS(=O)(=O)c2ccc(OC)cc2)c(OCC)cc1NC(=O)c1ccco1 | inactive | –
37 | CCCn1c(SCC(=O)c2c(N)n(C3CC3)c(=O)[nH]c2=O)nnc1-c1ccncc1 | inconclusive: 10.4 µM [inhibitor, single point] | –
38 | O=C(O)/C=C/c1cnc[nH]1 | inactive | –
39 | COc1cc(OC)cc(C(=O)NCC(=O)Nc2ccc(OC)c(Cl)c2)c1 | inactive | –
40 | Cc1cccc(C(=O)NCCc2ccccc2)c1 | inconclusive: 2.94 µM [inhibitor, partial curve, poor fit] | –
41 | CCCSc1nc2ccsc2c(=O)n1CC | inactive | –
42 | CCCCCN(C(=O)CCC(=O)OCc1cccc(C(F)(F)F)c1)c1c(N)n(CCCC)c(=O)[nH]c1=O | inconclusive: 0.0029 µM [inhibitor, full curve, poor fit] | –
43 | Cc1csc(N2CCN(c3cc4nc(-c5ccncc5)[nH]c4cc3Cl)CC2)n1 | inconclusive: 4.15 µM [inhibitor, single point] | –
44 | CCOC(=O)CSc1nc2c(c(=O)[nH]c(=O)n2C)n1CCc1ccccc1 | inconclusive: 20.8 µM [inhibitor, partial curve, poor fit] | –
45 | O=[N+]([O-])c1cccnc1SCc1ccccc1 | inactive | –
46 | CCOc1cc([N+](=O)[O-])cc2c1C(=O)Nc1ccccc1O2 | inconclusive: 16.5 µM [inhibitor, single point] | –
47 | O=C(CSc1ccc(-c2ccccn2)nn1)N1CCCC1 | inactive | –
48 | CCOC(=O)c1cc2c(=O)n3ccccc3nc2n(Cc2ccco2)c1=NC(=O)c1cccc(OC)c1 | inconclusive: 10.4 µM [inhibitor, single point] | –
49 | CCN1c2ccccc2-c2nc3ccccc3n2C1c1cccs1 (centres undefined) | active: 3.7 µM | –
50 | Cc1nc(SCC(=O)NCc2ccco2)c2c(=O)n(C)c(=O)n(CC(C)C)c2n1 | inconclusive: 4.15 µM [inhibitor, single point] | –

A portion taken from the entries so far:
Row | SMILES | Potency | activity change, negative = inhibition
6 | O=C(CN1CCCC1=O)NC1CCCc2c1cnn2-c1cc(F)cc(F)c1 (centres undefined) | inactive | –
7 | COc1cc(/C=C(\C#N)c2nc3ccccc3[nH]2)cc(OC)c1O | inactive | –
8 | Cc1ccc(SCC(=O)NC2CCS(=O)(=O)C2)cc1 (centres undefined) | inactive | –
9 | O=S(=O)(Cc1ccccc1)NCCc1cccc(Cl)c1 | active: 3.29 µM | –
10 | O=C(CSc1ccccc1)NCC1(N2CCCCC2)CCCCC1 | inconclusive: 18.5 µM [inhibitor, single point] | –
11 | CC(C)CN1CCC(=O)N(CCOc2ccccc2)CC1 | inactive | –
12 | COc1nc(N/N=C/c2ccc(C)cc2)nc(N2CCCCC2)n1 | inactive | –
13 | Cc1ccc(-c2noc(-c3cc(C(C)(C)C)nn3Cc3ccccc3)n2)cc1 | inactive | –
14 | Oc1ccc(N2CCN(C(c3cccnc3)c3nnnn3Cc3ccccc3)CC2)cc1 (centres undefined) | inconclusive: 0.415 µM [inhibitor, full curve, poor fit] | –
15 | CC(C)C[C@@H](C(=O)N[C@@H](C(=O)O)c1ccccc1)N1C(=O)N2CCc3c([nH]c4ccccc34)[C@@]2(C)C1=O | inconclusive: 13.1 µM [inhibitor, partial curve] | –
16 | COc1ccc(-c2nc3ccccc3c(=O)n2CCOc2cccc(C)c2C)cc1 | inactive | –
17 | C/C(N)=C(/C#N)C(=O)COC(=O)CCCNC(=O)c1ccc(Cl)cc1 | inconclusive: 18.5 µM [inhibitor, single point] | –
18 | C=CCn1c(SCC(=O)NCCCC(=O)OCC)nc2scc(-c3ccco3)c2c1=O | inactive | –
19 | COC(=O)C1C(=O)NC(SC)=C(C#N)C1c1ccccc1F (centres undefined) | inactive | –
20 | COc1cc(-c2cc(C(=O)NCCc3ccc(S(N)(=O)=O)cc3)c3ccccc3n2)cc(OC)c1OC | inconclusive: 11.7 µM [inhibitor, single point] | –
21 | CSc1nc(-c2ccco2)nn1C(=O)c1cccs1 | inconclusive: 18.5 µM [inhibitor, single point] | –
22 | CC(=O)N1CCN(CC(=O)c2ccc(Br)cc2)CC1 | inactive | –

Following part

Row | SMILES | Potency | activity change, negative = inhibition
51 | CC(=O)C1=C(c2ccccc2)NC(=O)NC1c1cccs1 (centres undefined) | inconclusive: 10.4 µM [inhibitor, single point] | –
52 | CC(C)OCCCNC1=C(Cl)C(=O)c2ccccc2C1=O | active: 4.15 µM | –
53 | Cc1ccccc1Cn1nc(C)c(NC(=O)/C=C/c2cnn(C)c2)c1C | inconclusive: 18.5 µM [inhibitor, single point] | –
54 | CS(=O)(=O)c1ccc2nc(NC(=O)c3ccc(Cl)nc3)sc2c1 | inconclusive: 18.5 µM [inhibitor, single point] | –
55 | Cc1nn(-c2ccccc2)c(C)c1NC(=O)c1ccc(S(=O)(=O)N2CCCC2)cc1 | inconclusive: 18.5 µM [inhibitor, single point] | –
56 | CCOC(=O)CCNC(=O)c1ccc2nc(C3CCCCC3)oc2c1 | inconclusive: 13.1 µM [inhibitor, single point] | –
57 | CN(C)c1ccc(N2CN=C3SCC(=O)N3C2)cc1 | inconclusive: 0.0029 µM [inhibitor, full curve, poor fit] | –
58 | O=C(NCc1ccc(Cl)cc1)C(=O)Nc1nccs1 | inconclusive: 0.147 µM [inhibitor, full curve, poor fit] | –
59 | O=C(COCCOCC(=O)N(c1ccccn1)C1CCCCC1)N(c1ccccn1)C1CCCCC1 | inactive | –
60 | O=C(COc1cccc(Br)c1)N/N=C1\CCSC1 | inactive | –
61 | CCn1cc([N+](=O)[O-])c(C(=O)Nc2ccc3c(c2)OCCO3)n1 | inactive | –
62 | O=C(Nc1cccc(C(F)(F)F)c1)Nc1ccon1 | inactive | –
63 | COCCCNC(=S)N/N=C/c1ccc(OC)c(Br)c1 | inconclusive: 18.5 µM [inhibitor, single point] | –
64 | COc1ccc(Br)cc1CN1CCC(N2CCCC2)CC1 | inconclusive: 0.0029 µM [inhibitor, full curve, poor fit] | –
65 | CCOc1ccc(S(=O)(=O)Nc2ccc(C(=O)N(C)CC(=O)Nc3ccc(OC)cc3)cc2)cc1 | inconclusive: 18.5 µM [inhibitor, single point] | –
66 | COc1ccc(OC)c(-n2c(=S)[nH]c3cc(C(=O)N4CCN(c5ccccc5)CC4)ccc3c2=O)c1 | inconclusive: 11.7 µM [inhibitor, partial curve] | –
67 | COc1ccc(CN(C(=O)CSc2nnc(-c3ccc(OC)c(OC)c3)o2)c2ccc(F)cc2)cc1 | inconclusive: 13.1 µM [inhibitor, single point] | –
68 | Cc1ccc(C(=O)OCC(=O)N(C)c2ccccc2)cc1C | inactive | –
69 | COc1ccc(-c2noc(-c3ccccc3C(=O)NCc3ccco3)n2)cc1 | – | inactive: 1.12% [at 5.75 µM]
70 | CCOC(=O)C1=C(C)N(CCCCCC(=O)O)C(=O)NC1c1cccc([N+](=O)[O-])c1 (centres undefined) | inactive | –
71 | Cc1noc(C)c1C(=O)Nc1ccc2ccccc2c1 | inconclusive: 18.5 µM [inhibitor, single point] | –
72 | Cc1cccc(-c2ccc3ncnc(N(C)Cc4ccco4)c3c2)c1 | inconclusive: 13.1 µM [inhibitor, single point] | –
73 | O=C(Nc1nc2cc3c(cc2s1)OCCO3)c1ccc(N2C(=O)CCC2=O)cc1 | inactive | –
74 | CCC(=O)Nc1cccc(C2=NOC3(C2)C[C@@H](C(N)=O)N(C(=O)C(c2ccccc2)c2ccccc2)C3)c1 (some centres undefined) | inconclusive: 18.5 µM [inhibitor, single point] | –
